# From PMC11847539
# Protein sequences, listed by entry. Tags and fused reporters are not part of them. Lines headed by an entry give the natural chain unless they say otherwise; changes in a name come on top.
# UniProt Q96LA8: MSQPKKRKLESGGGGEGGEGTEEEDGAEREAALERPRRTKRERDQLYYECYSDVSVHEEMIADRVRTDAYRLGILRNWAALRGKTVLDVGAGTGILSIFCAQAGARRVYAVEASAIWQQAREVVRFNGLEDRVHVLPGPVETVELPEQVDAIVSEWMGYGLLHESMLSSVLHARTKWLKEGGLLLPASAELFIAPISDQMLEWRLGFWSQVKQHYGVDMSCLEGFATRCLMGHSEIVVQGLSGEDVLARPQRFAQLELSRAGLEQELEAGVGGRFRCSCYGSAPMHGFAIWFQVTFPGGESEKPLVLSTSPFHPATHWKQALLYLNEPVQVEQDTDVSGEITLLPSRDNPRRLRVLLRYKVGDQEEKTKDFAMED
# UniProt P17542: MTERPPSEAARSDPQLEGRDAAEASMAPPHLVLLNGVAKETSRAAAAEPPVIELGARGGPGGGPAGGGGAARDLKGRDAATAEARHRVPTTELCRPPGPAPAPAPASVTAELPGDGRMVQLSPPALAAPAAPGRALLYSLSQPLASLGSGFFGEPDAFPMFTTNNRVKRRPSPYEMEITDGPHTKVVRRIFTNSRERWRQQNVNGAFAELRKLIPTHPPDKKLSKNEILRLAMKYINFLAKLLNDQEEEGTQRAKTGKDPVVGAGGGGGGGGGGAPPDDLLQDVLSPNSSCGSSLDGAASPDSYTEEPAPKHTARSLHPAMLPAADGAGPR
# No constants are given. Whether binding was seen depends on the method and setting. Binding seen in cells or lysates may run through a third protein. Some results given as binding are weak or reduced against the parent protein; the word gives no strength.
# Legend:
# [1] = molecular target: full-length glutathione-S-transferase (GST)-PRMT6 (UniProt Q96LA8); experiment: pull-down; recombinant GST-PRMT6 on glutathione beads; in vitro translated 35S-labeled TAL1 or fragments; SDS-PAGE and autoradiography; only the target purified
# FLAG-tagged TAL1 = FLAG-tagged TAL1 (UniProt P17542); experiment: co-IP; extracts of transiently transfected HEK293T cells; lysis buffer 50 mM Tris pH 7.5, 150 mM NaCl, 0.1% Igepal, 1 mM EDTA; benzonase digest; anti-FLAG magnetic beads, 4 °C, 2 h; Western blot
Substance,binding [1],binding (FLAG-tagged TAL1)
TAL1 aa160-331 (from UniProt P17542 160-331) (domain or fragment),binds,–
TAL1 aa176-331 (from UniProt P17542 176-331) (domain or fragment),no binding,–
in vitro translated 35S-labeled full-length TAL1 (1-331) (from UniProt P17542 1-331),binds,–
HA-tagged PRMT6 (from UniProt Q96LA8 1-375) (enzyme),–,binds
